Values quoted from earlier work, collected in patent publication US5959109A, “Compounds and methods for increasing endogenous levels of corticotropin-releasing factor” (Neurocrine Biosciences, Inc., priority 1996, dated 1999).

Conditions: 0.3 mg/kg ip; cited from earlier work

CN1[C@@H]2C[C@@H](OC(=O)[C@H](CO)c3ccccc3)C[C@H]1[C@@H]1O[C@@H]12 [scopolamine]
acquisition and retention of spatial and avoidance learning: impairs acquisition and retention of spatial and avoidance learning paradigms in the rat
